The target of one assay is T1, 3×Flag-sIFITM3 (pig) (UniProt E7EAX3).
T1 sequence: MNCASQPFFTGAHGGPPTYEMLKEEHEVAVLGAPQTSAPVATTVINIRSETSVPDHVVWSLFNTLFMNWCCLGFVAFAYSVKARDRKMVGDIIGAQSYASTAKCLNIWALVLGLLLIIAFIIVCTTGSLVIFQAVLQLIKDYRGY
As to the kind of experiment: co-IP; PK15 cells cotransfected with 3×Flag-sIFITM1/2/3 and GFP-sABHD16A for 24 h; lysates precipitated with anti-Flag antibody on magnetic beads, 4°C, 4 h; blot with anti-GFP and anti-Flag.

Another assay deals with T2, 3×Flag-sIFITM2 (pig) (UniProt F4ZS15).
T2 sequence: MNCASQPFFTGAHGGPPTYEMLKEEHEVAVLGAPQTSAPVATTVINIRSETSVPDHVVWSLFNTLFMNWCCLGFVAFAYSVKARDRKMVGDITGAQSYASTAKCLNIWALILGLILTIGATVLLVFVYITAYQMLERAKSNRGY
The assay is described as above.

Assay [1] deals with T3, swine IFITM3 (sIFITM3), Gal4-binding domain fusion (pGBKT7-sifitm3) (pig) (UniProt E7EAX3).
T3 sequence: T1 sequence
The assay can be described thus: two-hybrid; AH109 yeast; Gal4 BD-IFITM as bait (pGBKT7), AD-ABHD16A as prey (pGADT7); growth on SD-Ade/-His/-Leu/-Trp and blue colonies with X-alpha-Gal.

For assay [2], the target named is T4, swine IFITM2 (sIFITM2), Gal4-binding domain fusion (pGBKT7-sifitm2) (pig) (UniProt F4ZS15).
T4 sequence: T2 sequence
The description is as above.

No constants are given. Whether binding was seen depends on the method and setting. Binding calls can cover weak binding; strength is not graded here. Sequences can lack the tags named with a protein. For some of these results: In cells and extracts the contact can be indirect.

GFP-sABHD16A (pig) (enzyme): the binding entry in the assay with 3×Flag-sIFITM3 (pig) and with 3×Flag-sIFITM2 (pig) was “binds” throughout.

For “swine ABHD16A (sABHD16A), Gal4 activation domain fusion (pGADT7-sabhd16a) (pig) (enzyme)”, the binding result in assay [1] and in assay [2] was “binds” in each case.

Values taken from publication PMC9765265.
